Test results published in PubChem BioAssay AID1508600 (Functional Genomics Laboratory (NCATS/FGL), 2020).
The campaign covered roughly 53,000 sequences. About 3,700 (7%) were called active.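 Rule for the calls: active = gene knockdowns whose robust z-score for IL-1 alpha signal is at least 2 or at most -2, so actives lie on both sides; inactive = the rest.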 Some of the results follow.

experiment: Components of the Cytosolic LPS Sensing Pathway: Gene Identification via Genome-wide siRNA Screen; conditions: RAW264.7 macrophages, IL-1a HTRF, actives lie on both sides, screened at 100 nM (by protocol), cells primed 5 h with Pam3CSK4 first;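 note: robust z of the log signal after scaling to non-targeting control siRNA wells of the plate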
Method in brief: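 Using IL-1a HTRF as read-out, the screen measured release from RAW264.7 cells after 48h siRNA knockdown (100 nM), 5 h Pam3CSK4 priming and 24 h cytosolic LipidA. Values were expressed relative to negative-control wells as robust z-scores.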

| Sequence | z-score |
| --- | --- |
| GGAGAGGAAAAUCAUCCUGTT against Rims2 | inactive: 0.038 |
| GCGUGACCAGUUCAGUGAATT against Tnfrsf17 | inactive: 0.755 |
| GCCACCAACUCAGGUAGAATT against Nrip2 | inactive: 0.343 |
| GGUAAGGAAAACAAAUAUGTT against En1 | active: 2.13 |
| CCACUGACAACAAGUUGUUTT against Glra2 | inactive: -1.58 |
| GGAAGAAAGGAAAAAAGCUTT against Gnrhr | inactive: -0.408 |
| GGUUCUUCAAGUCAGAUUUTT against Atp6v1b1 | inactive: 0.196 |
| GCAAUGGAGAGCAGAAAUATT against C230012O17Rik | inactive: 0.767 |
| GCCUUCUUAAGCUCUGAGCTT against Dhrs13 | active: -2.97 |
| GCUUUGUGCCAUCUCUACATT against Tlr13 | inactive: -0.724 |
| GUCAUGAAUGGGCUACUAATT against Olfr1447 | inactive: -0.903 |
| CCAUGGUCUUGAAUUAUUCTT against Syt4 | inactive: -0.242 |
| CGUAGUGUUCUGUGUUUAUTT against Mif | inactive: 1.36 |
| GCCUAAGAUCUGGACCUAATT against Timm44 | inactive: -0.35 |
| GCAAUACUCUGGUACUAGATT against Zfp938 | inactive: 0.784 |
| GGUCUUUUGUUACCUUAGUTT against Sult1b1 | inactive: 0.428 |
| GCUAGAAGUAGAGAAUCAGTT against Plekhh2 | inactive: 0.629 |
| GGAAGAGAACAACAUCUUUTT against Nsun4 | inactive: -0.56 |
| GGUGAUGUGGAAUAAAUUGTT against Odf4 | inactive: -1.62 |
| GCAAUUGAUUGACUGAGAATT against Calm3 | inactive: -0.79 |
| CCCAUACAGUGUGGUAUUUTT against Miga2 | inactive: -1.56 |
| GGCAGAAACGUGUCACCAUTT against Tsx | inactive: -1.13 |

| Sequence | z-score |
| --- | --- |
| CCUACAGAGUACAGAUUAUTT against Atp6v0d1 | inactive: -0.228 |
| GGCUCUGGGUCAACAUUUGTT against 2310011J03Rik | inactive: 0.387 |
| GGACCAAGAGAUUUGCUAUTT against Abcc2 | inactive: 0.535 |
| CCAGGGUUUAGCCUUUUGATT against Tmem252 | inactive: -0.309 |
| GGACCUGACUCAGCUCUUUTT against Dpp7 | inactive: -0.0514 |
| GCUGAGACAUGUGGAGUAUTT against 4931429L15Rik | inactive: 0.426 |
| GCUAGUUACAUCAUAUGCUTT against Gpr171 | inactive: 1.13 |
| GGUCAGGUCUUUUUAUACATT against Zfp354a | active: 2.56 |
| GCUACAAGCUUUUUCAAUUTT against Gm5089 | inactive: -0.399 |
| GGAAUCCUGGAUUGAGGAATT against Rhod | inactive: 0.394 |
| GGAGAAGGGUGUUUCAGCUTT against Usp29 | inactive: -1.68 |
| GUGUGCCAAAACCGAGAGUTT against Klk1b7-ps | inactive: 0.523 |
| CGCAGUGUAUGAUUAUAUATT against Reep5 | inactive: 0.768 |
| CCAAUUACUUGAAUUUAGCTT against Gata5 | inactive: 0.13 |
| GGACAAUGCAGCCUACUACTT against Gnaz | inactive: -0.31 |
| GGAGAUUGACUUCAAGGAGTT against S100a5 | inactive: -0.307 |
| CCUUCUACUGGCAACCUAUTT against Zfp110 | inactive: 0.25 |
| CCCACAUUGCUUACCUUUCTT against Zfp523 | inactive: -0.762 |
| CGAAAAUCUUCUGGCUCACTT against Llgl2 | inactive: -0.922 |
| GGUCCUACCUUGAAGCUCCTT against Ado | inactive: 0.816 |
| GGACCACCUGAAGAACCACTT against Plagl1 | inactive: 1.65 |
| GCUUGUGACUUAGAUUCUUTT against Rab8b | inactive: 1.3 |

Individual results from above.
z-score with GCUACAAGCUUUUUCAAUUTT against Gm5089 reads inactive: -0.399
z-score with CCACUGACAACAAGUUGUUTT against Glra2 reads inactive: -1.58
z-score with GUCAUGAAUGGGCUACUAATT against Olfr1447 reads inactive: -0.903
z-score with CCUUCUACUGGCAACCUAUTT against Zfp110 reads inactive: 0.25
z-score with GCUUUGUGCCAUCUCUACATT against Tlr13 reads inactive: -0.724
z-score with GCUAGUUACAUCAUAUGCUTT against Gpr171 reads inactive: 1.13

The list continues:

| Sequence | z-score |
| --- | --- |
| CCCAGGACAUCGUCACAGATT against Prkx | inactive: -0.555 |
| GGGCUUUCAAUGAAUUACGTT against Unk | inactive: -0.615 |
| GGACUACGCAGUCUCUACATT against Ddah1 | inactive: 1.77 |
| GGACACCAAAAAUGUAAACTT against Cfap97 | inactive: -1.92 |
| CCUAAACUCACUCUUGUGUTT against Chrna6 | inactive: -0.000677 |
| GGGUCCUAAGGGAUUUAUUTT against Klf16 | inactive: -0.49 |
| GGAAGAGGUGCUACCUCUATT against Utp3 | inactive: -0.349 |
| GCUCAUUGCACUUGCCAAGTT against Tcea2 | inactive: -0.0377 |
| GCAAGAAAUGGACCGGUAGTT against Timm17a | inactive: -0.882 |
| GGACCGAGCCAGAUUCUUCTT against Gas2l1 | inactive: 0.178 |
| GGAUUUCAGCUUCCAUUUUTT against Eif2b2 | inactive: -0.0135 |
| GGACCACCUUUUGGACAAATT against Vmn1r198 | inactive: 0.93 |
| GGAGGAAGAAAACAUCUCATT against Msh3 | inactive: -0.548 |
| GGAGGCUGUUGUGGAUCUUTT against Acin1 | inactive: 1.03 |
| CGGUGGCAAAAUGAGAAGUTT against Cd79a | inactive: -0.142 |
| GCAACGAAGACAAAUUAUUTT against Mid1 | inactive: -0.402 |
| GCUAUUUCAUUGGUUGGCUTT against Odf4 | inactive: -0.304 |
| GGGAAUGGCUAAUGUUUAUTT against Stk38l | active: 2.32 |
| GGAUAGCAGCUGAGUUUUATT against Asb5 | active: 2.57 |
| GGCCUCCUAUAGACGGGAUTT against Vdac3 | active: 2.49 |
| GGUUUCUGAACAAAGCCAGTT against Mospd1 | inactive: -0.167 |
| GGAACAGAUACAGAAAUCCTT against Cstf2 | inactive: -0.0131 |

An excerpt of these results, tab-delimited:
Sequence	z-score
GGACCGAGCCAGAUUCUUCTT against Gas2l1	inactive: 0.178
GGAUUUCAGCUUCCAUUUUTT against Eif2b2	inactive: -0.0135

Continuation.

| Sequence | z-score |
| --- | --- |
| GCCUUCCGCUACCUUCUUATT against Ccl19 | inactive: 0.198 |
| CCUUCUAAUCUUUUUGCCUTT against Polr3k | inactive: 1.86 |
| GGGAUGGACAUCUUGUUUUTT against Eif4a1 | inactive: -0.0565 |
| GCUCAUUCUCAAAGGCUUATT against Rdh12 | inactive: 0.659 |
| CGGUAUAGUAGAUACUUAATT against Picalm | active: 2.01 |
| GGAGGAGGAAAAGACUUUUTT against Pdzd3 | inactive: -0.0553 |
| AGCAGGAGUUCGAACAUGGTT against Hoxb4 | inactive: 1.09 |
| CCAUGAGGCGUAUCAUUUUTT against Phlda3 | inactive: 1.27 |
| GGUUUGCUGAGAAAUUAACTT against Btg3 | inactive: 0.958 |
| CCACGACGUACAUCCAUAATT against Tmem181a | inactive: -1.02 |
| GCUUACCGAUGGGAUGACGTT against Omd | inactive: -0.809 |
| GGAAGAUUUCACAUCUCAGTT against Pdia5 | inactive: -0.528 |
| CCACGAAGAGCAAGAAAACTT against Gm5941 | inactive: -1.15 |
| CACAGAACAUCAUCUCCCATT against Olfr887 | active: -2.79 |
| GCAGCAAUCAGAUCAUGUATT against Platr26 | inactive: -0.694 |
| GGGACAUUUUCAGUUUUCUTT against Brk1 | inactive: 0.776 |
| GGAGUUGUCUUCAAGAAAUTT against Rassf4 | inactive: 0.305 |
| GGAGAUGAAUCACUAACCATT against Fgf5 | inactive: -0.256 |
| CGUGGAAAUGUCUUAAAUCTT against Folh1 | inactive: 0.412 |
| AAACUAGGGUCGAUUUCACTT against Hmgn3 | inactive: 0.704 |
| GCCUUUGAUAAAAGUCCGGTT against Saxo2 | inactive: -0.93 |
| GCAGGAGUAUUGCCAAGGATT against Csf1 | inactive: -0.404 |

| Sequence | z-score |
| --- | --- |
| CCCUCUAUCCCUCUGUAAGTT against Spsb2 | inactive: -0.377 |
| CCAGCUGUUCGCAAAAAAATT against Zranb2 | inactive: 0.557 |
| GCACCUUUGCUUCAGGUAGTT against Ttf2 | inactive: -0.837 |
| GGUAGGAGCUCUGAACACUTT against Josd1 | inactive: 0.128 |
| CGUGACUCUGCUUUAACUCTT against Col27a1 | active: -2.27 |
| GCUGGAAUGUAACUGUUUCTT against Ceacam18 | inactive: 0.169 |
| GGUGUUAGAUUCUUUGUAATT against Cst6 | active: 2.04 |
| GCCUUAGAAGUUAACAUGUTT against Suco | inactive: -0.368 |
| CCAGUAGCACGUGUUAUUUTT against Rbmy | inactive: 0.0944 |
| GGAACUGAUUGAAAACAUCTT against Syce2 | active: 2.97 |
| GGAUGUGCAUCACUUCAACTT against Sgsh | inactive: -1.75 |
| GGAAAGAUUGUUUGAAGGCTT against Cask | inactive: -0.252 |
| GGUGACAAUAAAAUGGUGATT against Fabp1 | inactive: -0.279 |
| GGAGACUUAUUGAGCAAGUTT against Usp44 | active: 4.42 |
| GGAGAAGACAUGUUAAUAATT against Aox1 | inactive: -0.305 |
| GGAUGUUGCGUCACCUACGTT against Zfp423 | inactive: -0.349 |
| GGAGAUGGCUUCUCUCUCGTT against Rarg | inactive: 1.22 |
| GGCCAACACUGAUACCAAATT against Plau | inactive: 0.74 |
| GCUGAUGGACUCAAGAAAGTT against Zbed5 | inactive: -0.805 |
